Over roughly 33,000 sequences, “E-score (-0.5 to 0.5)” has its median near -0.0059; the highest 2% begin near 0.26. Some of the results follow.
Each sequence was assayed against T1, Cin5 (UniProt P40917) (assay: PBM E-score (8-mer binding enrichment) (E-score (-0.5 to 0.5)); higher = stronger / more preferred TF binding). Conditions: protein concentration: 100 nM; construct: GST-full length.
T1 sequence: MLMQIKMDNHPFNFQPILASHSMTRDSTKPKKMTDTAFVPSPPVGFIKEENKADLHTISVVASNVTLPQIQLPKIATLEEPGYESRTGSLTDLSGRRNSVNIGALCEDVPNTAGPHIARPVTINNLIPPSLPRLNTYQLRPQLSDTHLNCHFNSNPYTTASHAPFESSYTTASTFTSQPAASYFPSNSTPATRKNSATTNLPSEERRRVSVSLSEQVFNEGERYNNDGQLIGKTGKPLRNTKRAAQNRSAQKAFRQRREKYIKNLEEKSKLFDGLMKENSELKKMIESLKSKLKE
Procedure, shortened: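 Bound GST-tagged yeast transcription factors, applied at about 100-200 nM to double-stranded universal all-10-mer Agilent arrays, were detected with fluorescent anti-GST. Scans were normalised with masliner. A modified Wilcoxon-Mann-Whitney statistic, the E-score, was assigned to each ungapped eight-base word pooled with its reverse complement by the Universal PBM Analysis Suite.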

Sequence | PBM E-score
CTGTAACC | 0.119
CAGGGATG | -0.104
ACGATACC | 0.106
AAGCAGAT | 0.128
CGTGTCTC | -0.147
ATGTCACC | 0.133
CGTACACA | -0.014
TGCGATAA | 0.177
TGCAAACA | -0.135
ACTAGGCG | 0.127
CGAATCGA | 0.247
CGTTGCTC | 0.0247
ATCCCGCG | 0.258
GTTGTAGA | -0.112
CGAAAAGA | 0.234
ATGTAGAA | 0.0813
AAATCGCC | 0.0475
CACAGTTA | 0.173
CAATCAAG | -0.0309
ATGAGTTG | 0.113
GGGAGCTA | -0.259
CGTACGCC | -0.112
ATAAGGCA | 0.0574
CTCGTGGA | -0.0459
GAGCGTGA | -0.108

Sequence | PBM E-score
GAATGTCC | 0.00316
AAGGATCA | 0.0888
AACTTTAA | 0.134
TAGCTGGA | -0.225
ATGAAGAC | -0.0169
GAAAGCCA | -0.134
CTGTCACA | -0.136
AAAAATTA | 0.227
ATGCGTGC | 0.0188
CACATGTG | -0.00999
CATCAACA | 0.226
AGACTGGA | -0.0392
AATGTCCG | 0.0421
TGAGCTCA | 0.128
CCTGGCTA | -0.103
CACAAGGC | -0.157
CAGGAGTC | -0.0298
AGTTACTG | -0.0614
CCCTCAGG | -0.164
ATGATGTC | 0.233
ACTGAAAT | 0.0721
AGAAATGG | 0.087
CGATCCGC | -0.0224
ACTCGGGA | 0.0269
AGTATTAC | 0.27

3 records picked at random from those above, as already listed:
Sequence | PBM E-score
TAGCTGGA | -0.225
ACGATACC | 0.106
AAGCAGAT | 0.128

(listing goes on)

Sequence | PBM E-score
AACGTGGC | -0.0505
CACAGAGA | 0.116
AAGCCCAA | 0.0997
CAATCTAG | 0.063
CAACCGGA | 0.0554
CGGTAAAA | 0.129
GACCTGCC | -0.158
CCTTCCTC | -0.257
CACTAACG | -0.146
GCGTGACC | -0.225
GAATATTC | 0.265
AAACTTAA | 0.151
CCCGTTCC | 0.0137
AGTTAGGG | -0.0578
ATTACGAC | 0.232
GAGTCCCA | -0.0319
AGAACACC | -0.0127
CTACATTA | 0.0914
CACAAACA | 0.0601
ATCTAATG | -0.00795
CCATTAGA | -0.223
ACACAAGA | 0.106
AATCTTCC | 0.0185
GAGATTCC | 0.162
AGAAGTCT | -0.127

Sequence | PBM E-score
ATGTTAGG | 0.0267
CACACGCG | 0.0438
CCTTCAGA | -0.128
CCGGACGA | 0.00947
AGACCGGG | -0.187
CCCGGGCA | -0.211
CTCGAATC | -0.185
CATGTCCG | -0.23
AGCGCTAG | -0.0283
CTACCTCA | -0.109
ACGCAAGG | -0.0379
CACCGGTC | -0.337
AGGGTTGA | -0.102
AAATCCTT | -0.0537
CAGTAGGA | -0.153
TACCGGCA | 0.0796
ATAACAGA | 0.142
AACAAAAC | 0.142
ACCGACTG | -0.0929
GCCGTGGA | -0.183
CGACACTA | -0.0512
AGAACAAC | 0.0386
CATTTATA | 0.211
CTGGTTCA | -0.167
AAGCCCTT | -0.155

Sequence | PBM E-score
CATACCCA | 0.086
AGGGGACG | -0.145
AATAAGTA | 0.248
ATCTTTCA | 0.142
AGTCTTGC | -0.0489
GGGGTTCA | -0.0521
AGTCCAAC | -0.102
AGATTTGA | 0.147
GCGCCCTA | -0.187
GTGTACGA | -0.014
ACAAGCAC | -0.0424
AAAAAGTG | -0.0328
CCGGTCGC | -0.124
CCTGAAAA | -0.101
ATAGTGAT | 0.0417
GCCCAGAC | -0.309
ACTCTTAC | 0.149
AAGTGTAG | 0.0123
CGGTCCGA | -0.0643
TAGAAAGA | 0.0209
AATAGGAG | -0.303
GACGCAGC | -0.186
ACTAGGAG | -0.16
AATTGAAG | -0.0129
AGAAGCGC | 0.0405

Single values from the entries so far.
Entry for CACCGGTC under PBM E-score: -0.337
Entry for ATGAGTTG under PBM E-score: 0.113
Entry for GAGATTCC under PBM E-score: 0.162
Entry for TACCGGCA under PBM E-score: 0.0796

Later entries:

Sequence | PBM E-score
ATCCTTGA | 0.0934
CGAGATGC | 0.00818
ACCCTCAA | -0.194
GGGACCCA | -0.124
ATATCAGG | -0.0242
AATTTCCG | 0.18
ATTTCAAA | 0.164
CACGCGCA | -0.149
AATAGCTG | 0.0377
CCTCCGCC | -0.175
GGTGGGAA | 0.0286
CTATAGTA | 0.109
AGTAGGCG | -0.00702
CAACTCGA | 0.108
ACGACTGA | -0.0442
TACTGTAA | 0.184
CGCCATGA | -0.043
ATTGTCTC | -0.017
TGAAACCA | 0.157
AGCCTTAT | -0.00116
GACGGACA | 0.194
GGGATCAA | -0.0601
CGGTGGAG | -0.136
CTCAAGCC | -0.13
CGGCCGAA | 0.0508

Sequence | PBM E-score
GAGAGAGC | -0.275
CTATCCAG | -0.0759
AGTAGCTA | 0.158
GAATGCGA | 0.0823
AGCATACA | -0.141
GGTAGCAC | -0.152
GTTTCGGA | -0.0625
AAGTAATT | 0.181
AGGCCGTG | -0.0992
ATTATTTC | 0.3
CCTCCCAG | -0.298
CACAACGC | 0.0644
AATTGCAA | 0.0827
CCCAGCGC | -0.201
CATGCGCC | -0.0427
AACAGGTT | -0.0011
AGTTCATG | 0.171
CAATCAGC | -0.0118
ATGACGTC | 0.255
AATTGATG | 0.246
AAGGTCTC | -0.206
GCAACGAA | 0.17

From the supplement of paper PMC3334620
